Measured values reported in paper PMC4378997.

Protein sequences, listed by entry. Tags and fused reporters are not part of them.
UniProt Q03018: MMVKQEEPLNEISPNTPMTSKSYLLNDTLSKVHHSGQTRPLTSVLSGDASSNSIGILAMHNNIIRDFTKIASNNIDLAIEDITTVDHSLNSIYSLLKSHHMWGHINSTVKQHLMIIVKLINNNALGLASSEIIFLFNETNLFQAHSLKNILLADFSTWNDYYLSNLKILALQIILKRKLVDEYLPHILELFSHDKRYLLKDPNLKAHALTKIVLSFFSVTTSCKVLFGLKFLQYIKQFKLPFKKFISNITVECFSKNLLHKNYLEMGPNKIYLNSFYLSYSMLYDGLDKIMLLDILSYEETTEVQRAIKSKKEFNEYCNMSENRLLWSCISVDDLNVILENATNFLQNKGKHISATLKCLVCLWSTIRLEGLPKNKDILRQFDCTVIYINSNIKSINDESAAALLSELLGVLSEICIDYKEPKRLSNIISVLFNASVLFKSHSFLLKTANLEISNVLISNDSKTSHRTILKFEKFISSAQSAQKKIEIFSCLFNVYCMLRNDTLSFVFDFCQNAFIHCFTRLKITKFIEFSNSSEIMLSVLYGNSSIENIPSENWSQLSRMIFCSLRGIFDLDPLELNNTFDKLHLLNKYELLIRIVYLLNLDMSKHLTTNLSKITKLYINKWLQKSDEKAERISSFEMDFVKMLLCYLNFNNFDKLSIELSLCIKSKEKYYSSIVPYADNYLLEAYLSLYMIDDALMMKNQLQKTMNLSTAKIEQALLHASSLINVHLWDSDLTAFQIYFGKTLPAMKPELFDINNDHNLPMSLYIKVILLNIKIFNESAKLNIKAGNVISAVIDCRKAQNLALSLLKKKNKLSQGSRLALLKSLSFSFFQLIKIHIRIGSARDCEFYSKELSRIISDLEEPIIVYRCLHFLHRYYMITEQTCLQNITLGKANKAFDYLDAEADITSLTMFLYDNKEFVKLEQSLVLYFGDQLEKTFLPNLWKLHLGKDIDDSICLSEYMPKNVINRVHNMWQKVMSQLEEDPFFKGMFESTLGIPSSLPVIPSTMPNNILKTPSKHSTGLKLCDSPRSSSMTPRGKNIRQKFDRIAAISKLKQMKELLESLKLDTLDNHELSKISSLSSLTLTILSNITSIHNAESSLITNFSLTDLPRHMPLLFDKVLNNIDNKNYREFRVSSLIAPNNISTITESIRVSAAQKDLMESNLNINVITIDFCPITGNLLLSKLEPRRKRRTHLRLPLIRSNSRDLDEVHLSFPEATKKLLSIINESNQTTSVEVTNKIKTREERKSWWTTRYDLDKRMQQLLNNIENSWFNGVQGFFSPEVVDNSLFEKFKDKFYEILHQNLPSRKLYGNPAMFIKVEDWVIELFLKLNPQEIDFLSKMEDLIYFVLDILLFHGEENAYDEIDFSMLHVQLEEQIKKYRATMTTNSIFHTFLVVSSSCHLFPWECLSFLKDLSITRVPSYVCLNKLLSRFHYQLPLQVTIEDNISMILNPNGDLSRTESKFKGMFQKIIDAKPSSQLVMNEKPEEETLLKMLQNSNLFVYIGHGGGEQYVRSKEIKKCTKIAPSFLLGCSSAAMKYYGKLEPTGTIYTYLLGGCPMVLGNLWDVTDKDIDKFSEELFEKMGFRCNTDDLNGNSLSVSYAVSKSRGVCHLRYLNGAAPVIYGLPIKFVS

Target: 13Myc-tagged Esp1 (S. cerevisiae) (UniProt Q03018)
Experiment: affinity purification with mass spectrometry; one-step IP of Esp1-13Myc from lysate of logarithmically growing yeast with 9E10 anti-Myc antibody cross-linked to Sepharose, 4 h at 4°C, washes with 500mM NaCl; compared by spectral counting with a mock IP from an untagged strain

| Binder | binding |
| --- | --- |
| Mck1 (protein, UniProt P21965 1-375) MSTEEQNGVPLQRGSEFIADDVTSNKSNNTRRMLVKEYRKIGRGAFGTVVQAYLTQDKKNWLGPFAIKKVPAHTEYKSRELQILRIADHPNIVKLQYFFTHLSPQDNKVYQHLAMECLPETLQIEINRYVTNKLEMPLKHIRLYTYQIARGMLYLHGLGVCHRDIKPSNVLVDPETGVLKICDFGSAKKLEHNQPSISYICSRFYRAPELIIGCTQYTTQIDIWGLGCVMGEMLIGKAIFQGQEPLLQLREIAKLLGPPDKRFIFFSNPAYDGPLFSKPLFSGSSQQRFEKYFGHSGPDGIDLLMKILVYEPQQRLSPRRILAHQFFNELRNDDTFLPRGFTEPIKLPNLFDFNDFELQILGEFADKIKPTKVAE | binds |
| Mrt4 (protein, UniProt P33201 1-236) MPRSKRSKLVTLAQTDKKGRENKERIFDEVREALDTYRYVWVLHLDDVRTPVLQEIRTSWAGSKLIMGKRKVLQKALGEKREEEYKENLYQLSKLCSGVTGLLFTDEDVNTVKEYFKSYVRSDYSRPNTKAPLTFTIPEGIVYSRGGQIPAEEDVPMIHSLEPTMRNKFEIPTKIKAGKITIDSPYLVCTEGEKLDVRQALILKQFGIAASEFKVKVSAYYDNDSSTVESTNINME | binds |
| Spt6 (protein, UniProt P23615 1-1451) MEETGDSKLVPRDEEEIVNDNDETKAPSEEEEGEDVFDSSEEDEDIDEDEDEARKVQEGFIVNDDDENEDPGTSISKKRRKHKRREREEDDRLSEDDLDLLMENAGVERTKASSSSGKFKRLKRVGDEGNAAESESDNVAASRQDSTSKLEDFFSEDEEEEESGLRNGRNNEYGRDEEDHENRNRTADKGGILDELDDFIEDDEFSDEDDETRQRRIQEKKLLREQSIKQPTQITGLSSDKIDEMYDIFGDGHDYDWALEIENEELENGNDNNEAEEEEIDEETGAIKSTKKKISLQDIYDLEDLKKNLMTEGDMKIRKTDIPERYQELRAGITDYGNMSSEDQELERNWIAEKISVDKNFDANYDLTEFKEAIGNAIKFITKENLEVPFIYAYRRNYISSREKDGFLLTEDDLWDIVSLDIEFHSLVNKKDYVQRFYAELHIDDPIVTEYFKNQNTASIAELNSLQDIYDYLEFKYANEINEMFINHTGKTGKKHLKNSSYEKFKASPLYQAVSDIGISAEDVGENISSQHQIHPPVDHPSSKPVEVIESILNANSGDLQVFTSNTKLAIDTVQKYYSLELSKNTKIREKVRSDFSKYYLADVVLTAKGKKEIQKGSLYEDIKYAINRTPMHFRRDPDVFLKMVEAESLNLLSVKLHMSSQAQYIEHLFQIALETTNTSDIAIEWNNFRKLAFNQAMDKIFQDISQEVKDNLTKNCQKLVAKTVRHKFMTKLDQAPFIPNVRDPKIPKILSLTCGQGRFGADAIIAVYVNRKGDFIRDYKIVDNPFDKTNPEKFEDTLDNIIQSCQPNAIGINGPNPKTQKFYKRLQEVLHKKQIVDSRGHTIPIIYVEDEVAIRYQNSERAAQEFPNKPPLVKYCIALARYMHSPLLEYANLTSEEVRSLSIHPHQNLLSSEQLSWALETAFVDIVNLVSVEVNKATDNNYYASALKYISGFGKRKAIDFLQSLQRLNEPLLARQQLITHNILHKTIFMNSAGFLYISWNEKRQKYEDLEHDQLDSTRIHPEDYHLATKVAADALEYDPDTIAEKEEQGTMSEFIELLREDPDRRAKLESLNLESYAEELEKNTGLRKLNNLNTIVLELLDGFEELRNDFHPLQGDEIFQSLTGESEKTFFKGSIIPVRVERFWHNDIICTTNSEVECVVNAQRHAGAQLRRPANEIYEIGKTYPAKVIYIDYANITAEVSLLDHDVKQQYVPISYSKDPSIWDLKQELEDAEEERKLMMAEARAKRTHRVINHPYYFPFNGRQAEDYLRSKERGEFVIRQSSRGDDHLVITWKLDKDLFQHIDIQELEKENPLALGKVLIVDNQKYNDLDQIIVEYLQNKVRLLNEMTSSEKFKSGTKKDVVKFIEDYSRVNPNKSVYYFSLNHDNPGWFYLMFKINANSKLYTWNVKLTNTGYFLVNYNYPSVIQLCNGFKTLLKSNSSKNRMNNYR | binds |
| Zuo1 (protein, UniProt P32527 1-433) MFSLPTLTSDITVEVNSSATKTPFVRRPVEPVGKFFLQHAQRTLRNHTWSEFERIEAEKNVKTVDESNVDPDELLFDTELADEDLLTHDARDWKTADLYAAMGLSKLRFRATESQIIKAHRKQVVKYHPDKQSAAGGSLDQDGFFKIIQKAFETLTDSNKRAQYDSCDFVADVPPPKKGTDYDFYEAWGPVFEAEARFSKKTPIPSLGNKDSSKKEVEQFYAFWHRFDSWRTFEFLDEDVPDDSSNRDHKRYIERKNKAARDKKKTADNARLVKLVERAVSEDPRIKMFKEEEKKEKERRKWEREAGARAEAEAKAKAEAEAKAKAESEAKANASAKADKKKAKEAAKAAKKKNKRAIRNSAKEADYFGDADKATTIDEQVGLIVDSLNDEELVSTADKIKANAAGAKEVLKESAKTIVDSGKLPSSLLSYFV | binds |
| Spf1 (protein, UniProt P39986 1-1215) MTKKSFVSSPIVRDSTLLVPKSLIAKPYVLPFFPLYATFAQLYFQQYDRYIKGPEWTFVYLGTLVSLNILVMLMPAWNVKIKAKFNYSTTKNVNEATHILIYTTPNNGSDGIVEIQRVTEAGSLQTFFQFQKKRFLWHENEQVFSSPKFLVDESPKIGDFQKCKGHSGDLTHLKRLYGENSFDIPIPTFMELFKEHAVAPLFVFQVFCVALWLLDEFWYYSLFNLFMIISMEAAAVFQRLTALKEFRTMGIKPYTINVFRNKKWVALQTNELLPMDLVSITRTAEESAIPCDLILLDGSAIVNEAMLSGESTPLLKESIKLRPSEDNLQLDGVDKIAVLHGGTKALQVTPPEHKSDIPPPPDGGALAIVTKTGFETSQGSLVRVMIYSAERVSVDNKEALMFILFLLIFAVIASWYVWVEGTKMGRIQSKLILDCILIITSVVPPELPMELTMAVNSSLAALAKFYVYCTEPFRIPFAGRIDVCCFDKTGTLTGEDLVFEGLAGISADSENIRHLYSAAEAPESTILVIGAAHALVKLEDGDIVGDPMEKATLKAVGWAVERKNSNYREGTGKLDIIRRFQFSSALKRSASIASHNDALFAAVKGAPETIRERLSDIPKNYDEIYKSFTRSGSRVLALASKSLPKMSQSKIDDLNRDDVESELTFNGFLIFHCPLKDDAIETIKMLNESSHRSIMITGDNPLTAVHVAKEVGIVFGETLILDRAGKSDDNQLLFRDVEETVSIPFDPSKDTFDHSKLFDRYDIAVTGYALNALEGHSQLRDLLRHTWVYARVSPSQKEFLLNTLKDMGYQTLMCGDGTNDVGALKQAHVGIALLNGTEEGLKKLGEQRRLEGMKMMYIKQTEFMARWNQPQPPVPEPIAHLFPPGPKNPHYLKALESKGTVITPEIRKAVEEANSKPVEVIKPNGLSEKKPADLASLLLNSAGDAQGDEAPALKLGDASCAAPFTSKLANVSAVTNIIRQGRCALVNTIQMYKILALNCLISAYSLSIIYMAGVKFGDGQATVSGLLLSVCFLSISRGKPLEKLSKQRPQSGIFNVYIMGSILSQFAVHIATLVYITTEIYKLEPREPQVDLEKEFAPSLLNTGIFIIQLVQQVSTFAVNYQGEPFRENIRSNKGMYYGLLGVTGLALASATEFLPELNEAMKFVPMTDDFKIKLTLTLLLDFFGSWGVEHFFKFFFMDDKPSDISVQQVKIASK | binds |

Further lines, results first:

| binding | Binder |
| --- | --- |
| binds | Iki3 (protein, UniProt Q06706 1-1349) MVEHDKSGSKRQELRSNMRNLITLNKGKFKPTASTAEGDEDDLSFTLLDSVFDTLSDSITCVLGSTDIGAIEVQQFMKDGSRNVLASFNIQTFDDKLLSFVHFADINQLVFVFEQGDIITATYDPVSLDPAETLIEIMGTIDNGIAAAQWSYDEETLAMVTKDRNVVVLSKLFEPISEYHLEVDDLKISKHVTVGWGKKETQFRGKGARAMEREALASLKASGLVGNQLRDPTMPYMVDTGDVTALDSHEITISWRGDCDYFAVSSVEEVPDEDDETKSIKRRAFRVFSREGQLDSASEPVTGMEHQLSWKPQGSLIASIQRKTDLGEEDSVDVIFFERNGLRHGEFDTRLPLDEKVESVCWNSNSEALAVVLANRIQLWTSKNYHWYLKQELYASDISYVKWHPEKDFTLMFSDAGFINIVDFAYKMAQGPTLEPFDNGTSLVVDGRTVNITPLALANVPPPMYYRDFETPGNVLDVACSFSNEIYAAINKDVLIFAAVPSIEEMKKGKHPSIVCEFPKSEFTSEVDSLRQVAFINDSIVGVLLDTDNLSRIALLDIQDITQPTLITIVEVYDKIVLLRSDFDYNHLVYETRDGTVCQLDAEGQLMEITKFPQLVRDFRVKRVHNTSAEDDDNWSAESSELVAFGITNNGKLFANQVLLASAVTSLEITDSFLLFTTAQHNLQFVHLNSTDFKPLPLVEEGVEDERVRAIERGSILVSVIPSKSSVVLQATRGNLETIYPRIMVLAEVRKNIMAKRYKEAFIVCRTHRINLDILHDYAPELFIENLEVFINQIGRVDYLNLFISCLSEDDVTKTKYKETLYSGISKSFGMEPAPLTEMQIYMKKKMFDPKTSKVNKICDAVLNVLLSNPEYKKKYLQTIITAYASQNPQNLSAALKLISELENSEEKDSCVTYLCFLQDVNVVYKSALSLYDVSLALLVAQKSQMDPREYLPFLQELQDNEPLRRKFLIDDYLGNYEKALEHLSEIDKDGNVSEEVIDYVESHDLYKHGLALYRYDSEKQNVIYNIYAKHLSSNQMYTDAAVAYEMLGKLKEAMGAYQSAKRWREAMSIAVQKFPEEVESVAEELISSLTFEHRYVDAADIQLEYLDNVKEAVALYCKAYRYDIASLVAIKAKKDELLEEVVDPGLGEGFGIIAELLADCKGQINSQLRRLRELRAKKEENPYAFYGQETEQADDVSVAPSETSTQESFFTRYTGKTGGTAKTGASRRTAKNKRREERKRARGKKGTIYEEEYLVQSVGRLIERLNQTKPDAVRVVEGLCRRNMREQAHQIQKNFVEVLDLLKANVKEIYSISEKDRERVNENGEVYYIPEIPVPEIHDFPKSHIVDF |
| binds | Pds1/securin (endogenous) (protein, UniProt P40316 1-373) MMPANEDKENNIVYTGNESSGINFPQTPAHLLKRSHSNILKPPVRLDQLKRDANSNNGNTLKYIQGGKEVSPTKRLHTHAQQQGRLPLAAKDNNRSKSFIFPETSNQSKDADLPQLQNTLSIRKNDQLRKLSQISRSRSRANHNDLLSNSRKLQKYGSVLGYNALPKMKSLVLKDLADSGKNEESSDDDEGNEDSESKLGKKLQSALLKQDSSDGENELNGGLGLFNEQGGLQQLIKNSTKNEQKTKNDKSDKTDDYDIEIAPQRQEPLPYVPEGYSPFQQDDIEKLKTFNSPYKLDLEDEDDTPDKVDLLPLEQIDEEGEKDETECITRNQEEGAALPLLSKNFKEVAAVPTMELVYSEEGLDPEELEDLVT |

Results are given in words; binding and its absence hold for the method and conditions named. In cells and extracts the contact can be indirect. These calls come from enrichment with a bait or labelling near it, and not all partners need be listed.
